# Results deposited as PubChem BioAssay AID504774 (Drosophila RNAi Screening Center, 2011).
# Purpose: 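Fly genes whose loss alters survival after alkylation damage to DNA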 (primary screen)
# Cell system: Drosophila Kc167 cells
# Reagents: long dsRNA against Drosophila genes, about 0.25 µg dsRNA per well
# Duration: about 6 days: 3 days knock-down, then 3 days with or without MMS
# Conditions: methyl methanesulphonate 0.004% (w/v) for 3 days after knock-down
# Read-out: 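Viability in wells given MMS, read as ATP luminescence, normalised by quantiles plate by plate and averaged across replicates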
# Direction: mean viability with MMS and viability with MMS: higher = more surviving cells after MMS
# The screen tested about 23,000 reagents; shown is a random part of those that have a named target and a result. 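Values are quantile-normalised luminescence on an arbitrary scale; higher means more cells surviving MMS.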 The numbers tell different reagents against one gene apart. Names joined by + are all predicted targets of the reagent. Not all columns of the deposit are shown.
predicted target,reagent no.,mean viability with MMS,"viability with MMS, replicate 1"
GstD4 (Glutathione S transferase D4),1,4.09e6,4.13e6
Msh6,1,3.62e6,4.12e6
L (retired record),1,3.45e6,4.00e6
L (retired record),2,2.91e6,3.47e6
CG16736,1,3.45e6,3.89e6
CG14069,1,3.83e6,4.18e6
Hsp70Bb + Hsp70Bbb,1,3.64e6,4.19e6
lncRNA:CR32660 (long non-coding RNA:CR32660),1,3.33e6,3.79e6
Cpr78Cc (Cuticular protein 78Cc),1,3.46e6,4.01e6
Zmynd8 (Zinc finger MYND-type containing 8),1,3.68e6,4.35e6
CG32248,1,3.38e6,3.79e6
PNPase (Polynucleotide phosphorylase),1,3.57e6,4.06e6
kug (kugelei),1,3.78e6,4.23e6
CG1635,1,3.53e6,4.12e6
Graf (GTPase regulator associated with FAK),1,3.55e6,4.19e6
CG33494,1,3.64e6,4.07e6
Sec22 (Secretory 22),1,3.24e6,3.68e6
CG6180,1,3.70e6,4.35e6
Ntl (Neurotransmitter transporter-like),1,1.99e6,4.04e6
CG5532,1,1.71e6,3.97e6
puc (puckered),1,3.35e6,3.80e6
CCT5 (Chaperonin containing TCP1 subunit 5),1,3.35e6,3.83e6
Desat2 (Desaturase 2),1,3.62e6,4.06e6
CG14315,1,3.62e6,4.11e6
CG13042,1,3.55e6,3.92e6
CG31106,1,3.63e6,4.07e6
CG8204,1,3.49e6,4.01e6
Dronc (Death regulator Nedd2-like caspase),1,3.53e6,4.07e6
bond (james bond),1,3.47e6,3.96e6
"Nubpl (NUBP iron-sulfur cluster assembly factor, mitochondrial)",1,3.50e6,3.95e6
I-2 (Inhibitor-2),1,3.32e6,3.65e6
I-2 (Inhibitor-2),2,3.76e6,4.20e6
Vps37B (Vacuolar protein sorting 37B),1,3.50e6,4.04e6
Rad51D (Rad51 recombinase D),1,3.66e6,4.09e6
CG14471 (retired record),1,3.43e6,3.92e6
CG3841,1,3.62e6,4.11e6
Gfat1 (Glutamine:fructose-6-phosphate aminotransferase 1),1,3.45e6,4.01e6
chif (chiffon),1,3.78e6,4.21e6
CG31454,1,3.74e6,4.20e6
CG31454,2,3.32e6,3.91e6
mthl4 (methuselah-like 4),1,3.75e6,4.30e6
CG8635,1,3.60e6,4.08e6
Mpcp1,1,3.73e6,4.45e6
mRpL54 (mitochondrial ribosomal protein L54),1,3.59e6,3.82e6
Oseg1 (Outer segment 1),1,3.72e6,4.17e6
l(2)k10201 (lethal (2) k10201),1,3.62e6,4.08e6
l(2)k10201 (lethal (2) k10201),2,3.54e6,4.05e6
CG11309,1,3.50e6,4.06e6
CG2906,1,3.63e6,4.17e6
DIP-beta (Dpr-interacting protein beta),1,2.38e6,4.02e6
DIP-beta (Dpr-interacting protein beta),2,4.00e6,4.47e6
DIP-beta (Dpr-interacting protein beta),3,3.80e6,4.24e6
DIP-beta (Dpr-interacting protein beta),4,3.89e6,4.27e6
CG31327,1,3.43e6,3.92e6
Pbp45 (PSEA-binding protein 45kD),1,3.55e6,3.87e6
CG4456 + Hsp22,1,3.64e6,4.18e6
CG4456 + Hsp22,2,3.64e6,4.06e6
CG17024 (retired record),1,3.85e6,4.31e6
bap (bagpipe),1,1.86e6,4.07e6
CG18190,1,3.49e6,4.07e6
Lk6 (Lk6 kinase),1,3.62e6,4.07e6
Lk6 (Lk6 kinase),2,3.58e6,4.01e6
GstD9 (Glutathione S transferase D9),1,3.79e6,4.37e6
CG8492,1,3.58e6,4.26e6
CG8492,2,3.47e6,4.04e6
alpha-Est2 (alpha-Esterase-2),1,3.57e6,4.11e6
CG13159,1,3.53e6,3.85e6
mtt (mangetout),1,3.15e6,3.53e6
mtt (mangetout),2,3.28e6,3.74e6
mtt (mangetout),3,3.45e6,3.98e6
mtt (mangetout),4,3.50e6,4.03e6

Targets listed so far whose target name starts with M or m (8):
predicted target,reagent no.,mean viability with MMS,"viability with MMS, replicate 1"
Msh6,1,3.62e6,4.12e6
mthl4 (methuselah-like 4),1,3.75e6,4.30e6
Mpcp1,1,3.73e6,4.45e6
mRpL54 (mitochondrial ribosomal protein L54),1,3.59e6,3.82e6
mtt (mangetout),1,3.15e6,3.53e6
mtt (mangetout),2,3.28e6,3.74e6
mtt (mangetout),3,3.45e6,3.98e6
mtt (mangetout),4,3.50e6,4.03e6
